Molecules are shown by their SMILES.

Protein sequences, listed by entry. Tags and fused reporters are not part of them. Residues count along the entry.
UniProt O00206, 24-839: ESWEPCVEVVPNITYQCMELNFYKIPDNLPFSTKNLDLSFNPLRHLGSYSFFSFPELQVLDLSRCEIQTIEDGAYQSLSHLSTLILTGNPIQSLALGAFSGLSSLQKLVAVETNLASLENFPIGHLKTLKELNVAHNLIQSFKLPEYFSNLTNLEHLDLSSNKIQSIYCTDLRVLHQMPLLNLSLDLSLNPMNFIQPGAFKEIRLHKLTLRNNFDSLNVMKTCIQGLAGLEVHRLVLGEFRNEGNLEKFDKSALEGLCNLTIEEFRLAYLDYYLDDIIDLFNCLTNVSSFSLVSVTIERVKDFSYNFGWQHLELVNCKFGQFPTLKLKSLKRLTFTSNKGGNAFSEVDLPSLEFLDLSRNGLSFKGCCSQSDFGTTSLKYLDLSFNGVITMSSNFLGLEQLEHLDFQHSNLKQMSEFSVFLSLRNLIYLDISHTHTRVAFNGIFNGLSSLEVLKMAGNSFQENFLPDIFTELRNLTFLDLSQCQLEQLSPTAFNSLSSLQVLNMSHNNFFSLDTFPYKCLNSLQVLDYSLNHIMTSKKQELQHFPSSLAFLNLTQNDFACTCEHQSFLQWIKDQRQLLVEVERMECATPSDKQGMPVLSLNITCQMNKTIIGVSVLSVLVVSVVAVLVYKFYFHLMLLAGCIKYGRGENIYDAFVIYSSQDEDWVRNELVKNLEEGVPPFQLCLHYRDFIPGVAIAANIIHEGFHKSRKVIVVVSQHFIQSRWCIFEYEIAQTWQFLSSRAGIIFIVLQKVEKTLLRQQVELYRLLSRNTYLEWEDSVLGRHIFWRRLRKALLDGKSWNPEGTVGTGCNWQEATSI

The target in one test is T1, human TLR4 (Homo sapiens, UniProt O00206).
T1 construct: host or cells: HEK 293
The class given is cell-based.

Test [1] has as its system isolated microglial TLR4 mRNA. As to conditions: in vitro incubation 2 hr.

Consider `CN1CC[C@]23c4c5ccc(O)c4O[C@H]2[C@@H](O)C=C[C@H]3[C@H]1C5.O=S(=O)(O)O` [morphine, (−)-Morphine sulfate], for which the TLR4 agonist activity result on human TLR4 was “TLR4 agonists”. Moreover, the “isolated microglial TLR4 mRNA expression” value in test [1] is “dose dependently increased”.

The values are drawn from US20110251229A1 (priority 2007, published 2011).
